Source: publication PMC8051072
No constants are given. Whether binding was seen depends on the method and setting. Binding seen in cells or lysates may run through a third protein. These calls come from enrichment with a bait or labelling near it, and not all partners need be listed. Sequences can lack the tags named with a protein.

By UniProt entry, the sequences of proteins in these tests, tags left out.
UniProt P35222: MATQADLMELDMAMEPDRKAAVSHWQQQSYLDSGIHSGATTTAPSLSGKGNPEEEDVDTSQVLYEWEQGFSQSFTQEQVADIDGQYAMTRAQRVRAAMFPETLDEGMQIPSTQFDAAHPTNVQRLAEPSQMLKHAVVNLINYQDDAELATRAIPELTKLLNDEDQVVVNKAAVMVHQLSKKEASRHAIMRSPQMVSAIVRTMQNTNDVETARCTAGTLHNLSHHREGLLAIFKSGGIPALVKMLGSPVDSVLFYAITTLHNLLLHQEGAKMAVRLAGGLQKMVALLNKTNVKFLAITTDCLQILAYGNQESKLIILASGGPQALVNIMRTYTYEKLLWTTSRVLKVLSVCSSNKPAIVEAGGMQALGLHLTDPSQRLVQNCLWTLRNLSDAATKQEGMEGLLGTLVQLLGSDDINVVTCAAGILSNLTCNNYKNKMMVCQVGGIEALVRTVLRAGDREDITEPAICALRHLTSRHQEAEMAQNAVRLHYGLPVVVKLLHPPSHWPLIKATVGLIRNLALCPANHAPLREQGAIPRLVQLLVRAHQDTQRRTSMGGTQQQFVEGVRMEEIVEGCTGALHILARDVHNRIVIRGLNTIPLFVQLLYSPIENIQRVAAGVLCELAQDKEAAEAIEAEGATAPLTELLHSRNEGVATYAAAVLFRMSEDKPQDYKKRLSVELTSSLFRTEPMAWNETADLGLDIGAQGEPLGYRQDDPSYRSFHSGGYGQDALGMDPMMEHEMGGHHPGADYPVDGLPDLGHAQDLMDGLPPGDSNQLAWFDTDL

Molecular target: T1, Flag-Sec62 (UniProt Q99442)
T1 sequence: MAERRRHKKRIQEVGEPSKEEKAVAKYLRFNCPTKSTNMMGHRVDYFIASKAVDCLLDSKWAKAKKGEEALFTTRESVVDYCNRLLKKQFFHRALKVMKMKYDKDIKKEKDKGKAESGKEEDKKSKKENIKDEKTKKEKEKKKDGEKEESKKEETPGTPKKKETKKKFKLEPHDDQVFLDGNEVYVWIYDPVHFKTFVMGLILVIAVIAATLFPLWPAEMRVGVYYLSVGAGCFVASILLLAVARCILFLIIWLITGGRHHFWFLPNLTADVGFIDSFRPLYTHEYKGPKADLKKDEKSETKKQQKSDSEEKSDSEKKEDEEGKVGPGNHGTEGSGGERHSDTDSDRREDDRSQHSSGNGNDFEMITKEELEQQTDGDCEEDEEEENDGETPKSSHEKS
Assay: affinity purification with mass spectrometry; DLD1 cells transfected with Flag-Sec62; whole cell extracts immunoprecipitated with anti-Flag antibody affinity resin; SDS-PAGE, silver staining, mass spectrometry

binding: binds
Substance: β-catenin (endogenous) (from UniProt P35222 1-781)
